We go through three molecules from patent publication US20250129145A1 (Ablynx, published 2025).

Amino acid sequences for entries named in this document (tags omitted). Residues count along the entry.
UniProt P02768, residues 25-609: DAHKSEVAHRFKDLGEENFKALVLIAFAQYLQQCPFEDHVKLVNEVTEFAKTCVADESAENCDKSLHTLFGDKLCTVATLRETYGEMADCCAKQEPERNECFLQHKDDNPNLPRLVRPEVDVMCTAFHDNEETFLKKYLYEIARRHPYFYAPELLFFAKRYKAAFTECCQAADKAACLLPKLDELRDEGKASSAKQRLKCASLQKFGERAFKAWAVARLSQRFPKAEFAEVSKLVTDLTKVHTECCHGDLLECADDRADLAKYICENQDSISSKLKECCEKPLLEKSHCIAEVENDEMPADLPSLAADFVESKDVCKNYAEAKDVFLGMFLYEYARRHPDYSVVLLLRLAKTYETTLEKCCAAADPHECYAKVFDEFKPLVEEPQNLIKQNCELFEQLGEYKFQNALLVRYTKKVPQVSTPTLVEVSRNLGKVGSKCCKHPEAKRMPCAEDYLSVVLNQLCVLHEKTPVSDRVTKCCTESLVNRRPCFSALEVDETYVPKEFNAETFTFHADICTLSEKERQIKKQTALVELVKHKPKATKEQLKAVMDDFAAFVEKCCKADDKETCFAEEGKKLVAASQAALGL

Results are given in words; binding and its absence hold for the method and conditions named. Some results given as binding are weak or reduced against the parent protein; the word gives no strength.

The experiment concerns the target T1, human serum albumin (human, UniProt P02768 25-609).
T1 construct: Bought protein; also called HSA
In words: SPR Biacore 8K+, pH 7.4; construct captured on immobilized target X. On the technique in general: In SPR one partner is held on a chip, and binding of the other changes the refractive index at the surface.

B1: T026301365 (VHH, not shown: large carriers; small tags and cut ends)
chain: EVQLVESGGGVVQPGGSLRLSCAASGFTFRSFGMSWVRQAPGKGPEWVSSISGSGSDTLYADSVKGRFTISRDNSKNTLYLQMNSLRPEDTALYYCTIGGSLSRSSQGTLVTVSSGGGGSGGGGSGGGGSGGGGSGGGGSGGGGSGGGGSEVQLVESGGGVVQPGGSLRLSCAASGFTFRSFGMSWVRQAPGKGPEWVSSISGSGSDTLYADSVKGRFTISRDNSKNTLYLQMNSLRPEDTALYYCTIGGSLSRSSQGTLVTVSSA
notes: Tetravalent ISVD fusion protein made in P. pastoris; X and Y are undisclosed target ISVDs; also called X-9GS-Y-9GS-ALB23002-35GS-Alb223
For B1, the binding entry is on record as “binds”.

B2: T026301360 (VHH, not shown: large carriers; small tags and cut ends)
chain: EVQLVESGGGVVQPGGSLRLSCAASGFTFRSFGMSWVRQAPGKGPEWVSSISGSGSDTLYADSVKGRFTISRDNSKNTLYLQMNSLRPEDTALYYCTIGGSLSRSSQGTLVTVSSGGGGSGGGSEVQLVESGGGVVQPGGSLRLSCAASGFTFRSFGMSWVRQAPGKGPEWVSSISGSGSDTLYADSVKGRFTISRDNSKNTLYLQMNSLRPEDTALYYCTIGGSLSRSSQGTLVTVSSA
notes: Tetravalent ISVD fusion protein made in P. pastoris; X and Y are undisclosed target ISVDs; also called X-9GS-Y-9GS-ALB23002-9GS-Alb223; X-Y-Alb23002-Alb223
On to B2, for which the binding result is listed as “binds”.

B3: T026301370 (VHH, not shown: large carriers; small tags and cut ends)
chain: EVQLVESGGGVVQPGGSLRLSCAASGFTFRSFGMSWVRQAPGKGPEWVSSISGSGSDTLYADSVKGRFTISRDNSKNTLYLQMNSLRPEDTALYYCTIGGSLSRSSQGTLVTVSSGGGGSGGGGSGGGGSGGGGSEVQLVESGGGVVQPGGSLRLSCAASGFTFRSFGMSWVRQAPGKGPEWVSSISGSGSDTLYADSVKGRFTISRDNSKNTLYLQMNSLRPEDTALYYCTIGGSLSRSSQGTLVTVSSA
Take B3: the binding result is reported as “binds”.
